Reference: PubChem BioAssay AID1259405 (NCATS, 2018)
Screen: 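Knock-downs that lift recombinant protein yield in hamster ovary cells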 (primary screen). System: Chinese hamster CHO-K1 ovary cells with stable secreted eGFP expression. Knock-down reagent: single siRNA against mouse genes, 0.8 pmol siRNA per well (2 µl of 400 nM stock). Duration: 3 days. Read-out: 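Per-well intracellular GFP measured by laser scanning cytometry, plus viability from ATP luminescence, each relative to plate median of non-targeting control wells, in %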. Scale: GFP, % of control: higher = more GFP per well, higher productivity; viability (ATP), % of control: higher = more viable cells (more ATP). Active means: 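Called active when intracellular GFP, relative to negative control, is at or above 120%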.
Here is a random part of about 50,000 reagents. About 4,000 of all reagents (8%) count as active. 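Mouse siRNA library applied to hamster cells; one well for each siRNA.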 Reagents against one gene are numbered here.

The first 3 entries, ahead of the listing:
{"target": "H2-DMb1 (histocompatibility 2, class II, locus Mb1)", "reagent": 1, "GFP, % of control": 79.8, "viability (ATP), % of control": 69.7, "Outcome": "inactive"}
{"target": "H2-DMb1 (histocompatibility 2, class II, locus Mb1)", "reagent": 2, "GFP, % of control": 88.3, "viability (ATP), % of control": 74.5, "Outcome": "inactive"}
{"target": "H2-DMb1 (histocompatibility 2, class II, locus Mb1)", "reagent": 3, "GFP, % of control": 68.1, "viability (ATP), % of control": 63.5, "Outcome": "inactive"}

Main list, from the start:
{"target": "H2-DMb1 (histocompatibility 2, class II, locus Mb1)", "reagent": 1, "GFP, % of control": 79.8, "viability (ATP), % of control": 69.7, "Outcome": "inactive"}
{"target": "H2-DMb1 (histocompatibility 2, class II, locus Mb1)", "reagent": 2, "GFP, % of control": 88.3, "viability (ATP), % of control": 74.5, "Outcome": "inactive"}
{"target": "H2-DMb1 (histocompatibility 2, class II, locus Mb1)", "reagent": 3, "GFP, % of control": 68.1, "viability (ATP), % of control": 63.5, "Outcome": "inactive"}
{"target": "Smarcd3 (SWI/SNF related BAF chromatin remodeling complex subunit D3)", "reagent": 1, "GFP, % of control": 46, "viability (ATP), % of control": 55.6, "Outcome": "inactive"}
{"target": "Smarcd3 (SWI/SNF related BAF chromatin remodeling complex subunit D3)", "reagent": 2, "GFP, % of control": 71.3, "viability (ATP), % of control": 63.1, "Outcome": "inactive"}
{"target": "Smarcd3 (SWI/SNF related BAF chromatin remodeling complex subunit D3)", "reagent": 3, "GFP, % of control": 42.8, "viability (ATP), % of control": 54.4, "Outcome": "inactive"}
{"target": "Eif4enif1", "reagent": 1, "GFP, % of control": 53.5, "viability (ATP), % of control": 59.2, "Outcome": "inactive"}
{"target": "Eif4enif1", "reagent": 2, "GFP, % of control": 91.4, "viability (ATP), % of control": 59.2, "Outcome": "inactive"}
{"target": "Eif4enif1", "reagent": 3, "GFP, % of control": 59.9, "viability (ATP), % of control": 87.8, "Outcome": "inactive"}
{"target": "Or55b10 (olfactory receptor family 55 subfamily B member 10)", "reagent": 1, "GFP, % of control": 84.5, "viability (ATP), % of control": 79.3, "Outcome": "inactive"}
{"target": "Or55b10 (olfactory receptor family 55 subfamily B member 10)", "reagent": 2, "GFP, % of control": 73, "viability (ATP), % of control": 105, "Outcome": "inactive"}
{"target": "Or55b10 (olfactory receptor family 55 subfamily B member 10)", "reagent": 3, "GFP, % of control": 35.8, "viability (ATP), % of control": 35.2, "Outcome": "inactive"}
{"target": "Potefam1 (POTE ankyrin domain family member 1)", "reagent": 1, "GFP, % of control": 67.9, "viability (ATP), % of control": 63, "Outcome": "inactive"}
{"target": "Potefam1 (POTE ankyrin domain family member 1)", "reagent": 2, "GFP, % of control": 59.1, "viability (ATP), % of control": 65.6, "Outcome": "inactive"}
{"target": "Potefam1 (POTE ankyrin domain family member 1)", "reagent": 3, "GFP, % of control": 46.3, "viability (ATP), % of control": 66.9, "Outcome": "inactive"}
{"target": "Srp54a (signal recognition particle 54A)", "reagent": 1, "GFP, % of control": 94.5, "viability (ATP), % of control": 97.8, "Outcome": "inactive"}
{"target": "Srp54a (signal recognition particle 54A)", "reagent": 2, "GFP, % of control": 122, "viability (ATP), % of control": 89.1, "Outcome": "active"}
{"target": "Srp54a (signal recognition particle 54A)", "reagent": 3, "GFP, % of control": 73.9, "viability (ATP), % of control": 49.7, "Outcome": "inactive"}
{"target": "Msantd5f6 (Myb/SANT DNA binding domain containing 5 family member 6)", "reagent": 1, "GFP, % of control": 50.6, "viability (ATP), % of control": 76.7, "Outcome": "inactive"}
{"target": "Msantd5f6 (Myb/SANT DNA binding domain containing 5 family member 6)", "reagent": 2, "GFP, % of control": 61.2, "viability (ATP), % of control": 68.9, "Outcome": "inactive"}
{"target": "Msantd5f6 (Myb/SANT DNA binding domain containing 5 family member 6)", "reagent": 3, "GFP, % of control": 67.5, "viability (ATP), % of control": 54.5, "Outcome": "inactive"}
{"target": "Nudt6 (nudix hydrolase 6)", "reagent": 1, "GFP, % of control": 94, "viability (ATP), % of control": 75.8, "Outcome": "inactive"}
{"target": "Nudt6 (nudix hydrolase 6)", "reagent": 2, "GFP, % of control": 87.4, "viability (ATP), % of control": 65.2, "Outcome": "inactive"}
{"target": "Nudt6 (nudix hydrolase 6)", "reagent": 3, "GFP, % of control": 85.9, "viability (ATP), % of control": 87.5, "Outcome": "inactive"}
{"target": "Rrp9", "reagent": 1, "GFP, % of control": 88.4, "viability (ATP), % of control": 88.6, "Outcome": "inactive"}
{"target": "Rrp9", "reagent": 2, "GFP, % of control": 153, "viability (ATP), % of control": 66.5, "Outcome": "active"}
{"target": "Rrp9", "reagent": 3, "GFP, % of control": 61.2, "viability (ATP), % of control": 80.7, "Outcome": "inactive"}
